At least one compound was matched to its structure with a doubt left.
Assays:
isolated G cells = test: Gastrin release from isolated G cells; format: cell-based; settings: nifedipine 1 μm (preincubation 10 mins), H-89 10 μM, PD98059 0.1 μM, wortmannin 1 nM
CCK2 receptor = target: T1, CCK2 receptor (Homo sapiens, UniProt P32239); test: Gastrin-stimulated cAMP production and calcitonin release/transcription in MTC-SK cells; format: cell-based
T1 construct: Gastrin stimulated both cAMP as well as calcitonin release from the well-differentiated human MTC cell line, MTC-SK; endogenous in cells; host or cells: MTC-SK (human medullary thyroid carcinoma cell line)
T1 sequence (P32239 1-447): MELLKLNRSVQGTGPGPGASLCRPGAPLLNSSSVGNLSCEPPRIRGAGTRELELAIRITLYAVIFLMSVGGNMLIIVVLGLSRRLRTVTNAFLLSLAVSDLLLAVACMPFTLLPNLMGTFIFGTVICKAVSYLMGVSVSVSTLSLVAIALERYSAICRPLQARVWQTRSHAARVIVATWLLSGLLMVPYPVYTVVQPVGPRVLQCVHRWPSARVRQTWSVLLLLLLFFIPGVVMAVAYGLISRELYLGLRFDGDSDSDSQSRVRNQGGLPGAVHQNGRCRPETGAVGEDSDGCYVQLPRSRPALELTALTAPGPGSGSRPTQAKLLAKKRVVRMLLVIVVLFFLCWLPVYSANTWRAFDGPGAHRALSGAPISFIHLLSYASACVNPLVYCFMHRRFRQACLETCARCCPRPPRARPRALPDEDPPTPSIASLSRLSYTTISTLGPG

| SMILES | effect on CaCl2-mediated gastrin release (isolated G cells) | stimulation of cAMP production (CCK2 receptor; MTC-SK cells) [fold] | stimulation of calcitonin gene transcription (CCK2 receptor; gastrin 0.1 nM) [fold] |
| --- | --- | --- | --- |
| COC[C@H]1OC(=O)c2coc3c2[C@@]1(C)C1=C(C3=O)[C@@H]2CCC(=O)[C@@]2(C)C[C@H]1OC(C)=O [wortmannin] | significantly inhibited |  |  |
| CSCC[C@H](NC(=O)[C@H](Cc1c[nH]c2ccccc12)NC(=O)CNC(=O)[C@H](Cc1ccc(O)cc1)NC(=O)[C@H](C)NC(=O)[C@H](CCC(=O)O)NC(=O)[C@H](CCC(=O)O)NC(=O)[C@H](CCC(=O)O)NC(=O)[C@H](CCC(=O)O)NC(=O)[C@H](CCC(=O)O)NC(=O)[C@H](CC(C)C)NC(=O)[C@H](Cc1c[nH]c2ccccc12)NC(=O)[C@@H]1CCCN1C(=O)CNC(=O)[C@@H]1CCC(=O)N1)C(=O)N[C@@H](CC(=O)O)C(=O)N[C@@H](Cc1ccccc1)C(N)=O [Gastrin] |  | ~5 | ~3 |
